Measured values published in publication PMC12827483.

Chains of the proteins cited; added tags and fusions are not shown.
UniProt Q8IX90: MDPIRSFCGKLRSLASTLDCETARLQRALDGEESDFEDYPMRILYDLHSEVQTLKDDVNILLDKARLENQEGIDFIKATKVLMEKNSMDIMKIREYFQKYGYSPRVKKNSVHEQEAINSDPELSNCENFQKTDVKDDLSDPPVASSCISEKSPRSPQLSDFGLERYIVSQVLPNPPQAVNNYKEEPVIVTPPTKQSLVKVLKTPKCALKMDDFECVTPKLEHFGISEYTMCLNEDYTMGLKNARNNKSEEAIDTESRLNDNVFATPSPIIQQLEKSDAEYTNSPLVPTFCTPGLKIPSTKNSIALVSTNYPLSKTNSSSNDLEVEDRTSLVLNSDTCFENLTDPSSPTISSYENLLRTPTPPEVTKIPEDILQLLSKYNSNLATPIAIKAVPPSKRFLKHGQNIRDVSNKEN
UniProt Q9GZT9: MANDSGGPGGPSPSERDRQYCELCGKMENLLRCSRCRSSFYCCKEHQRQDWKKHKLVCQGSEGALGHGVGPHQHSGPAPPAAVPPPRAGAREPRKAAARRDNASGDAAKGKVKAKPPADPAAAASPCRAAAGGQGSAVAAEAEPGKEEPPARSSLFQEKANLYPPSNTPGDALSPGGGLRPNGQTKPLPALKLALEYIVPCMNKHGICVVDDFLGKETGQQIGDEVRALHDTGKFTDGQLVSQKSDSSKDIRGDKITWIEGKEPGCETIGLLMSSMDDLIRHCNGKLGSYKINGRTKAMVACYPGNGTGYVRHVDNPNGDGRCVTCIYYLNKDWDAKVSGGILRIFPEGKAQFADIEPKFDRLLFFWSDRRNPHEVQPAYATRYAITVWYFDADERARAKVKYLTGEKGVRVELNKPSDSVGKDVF

Target: Spindle and Kinetochore Associated Protein 3 (SKA3) (human (endogenous in A549)) (UniProt Q8IX90)
Assay: affinity purification with mass spectrometry; IP with SKA3 antibody from total lysate of A549 cells, IgG antibody as negative control; silver-stained PAGE gel and mass spectrometry

binding: binds
Substance: Prolyl Hydroxylase Domain-containing protein 2 (PHD2) (from UniProt Q9GZT9 1-426) (enzyme)

Results are given in words; binding and its absence hold for the method and conditions named. Binding seen in cells or lysates may run through a third protein. Here binding means that the protein was enriched with, or labelled near, the bait; the list need not be complete.
